Data as given in PubChem BioAssay AID1159578 (Peter MacCallum Cancer Centre, 2015).
Here is a random part of about 18,000 deposited reagents. Over the whole deposit, about 1,030 (5.7%) got an active call. 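Inactive calls also include pools with fewer than 3300 nuclei, whose migration was not assessed.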 Raw values vary from plate to plate and are shown uncorrected. The numbers tell different reagents against one gene apart. Not all columns of the deposit are shown.

- Screen: 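siRNA pools altering how lymphatic endothelial cells close a scratch wound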 (primary screen)
- System: human lymphatic endothelial cells
- Reagent: siRNA pool against human genes, 40 nM
- Timing: 48 h after transfection
- Detection: 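Cells stained with dye and imaged after a scratch; covered wound area and nuclei counted, duplicates averaged, migration set against mock wells and turned into a robust z-score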
- Scale: migration robust z-score: higher = faster migration into the scratch; nuclei per well: higher = more cells in the well
- Hit rule: 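Migration changed when robust z exceeds 2 or falls below -2 and mean nuclei number is at least 3300; otherwise not called changed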
- Meaning of the calls: active = migration changed; inactive = no migration change, or too few cells

{"Target gene": "OR52M1 (olfactory receptor family 52 subfamily M member 1)", "pool no.": 1, "migration robust z-score": 0.93, "nuclei per well, duplicate mean": 6336, "Call": "inactive"}
{"Target gene": "RAC3 (Rac family small GTPase 3)", "pool no.": 1, "migration robust z-score": -0.03, "nuclei per well, duplicate mean": 7282, "Call": "inactive"}
{"Target gene": "OPN3 (opsin 3)", "pool no.": 1, "migration robust z-score": 0.57, "nuclei per well, duplicate mean": 6664, "Call": "inactive"}
{"Target gene": "ABHD12B (abhydrolase domain containing 12B)", "pool no.": 1, "migration robust z-score": 0.26, "nuclei per well, duplicate mean": 5046, "Call": "inactive"}
{"Target gene": "GNG4 (G protein subunit gamma 4)", "pool no.": 1, "migration robust z-score": 0.13, "nuclei per well, duplicate mean": 6390, "Call": "inactive"}
{"Target gene": "ZCWPW1 (zinc finger CW-type and PWWP domain containing 1)", "pool no.": 1, "migration robust z-score": 1.03, "nuclei per well, duplicate mean": 6589, "Call": "inactive"}
{"Target gene": "CD300LF (CD300 molecule like family member f)", "pool no.": 1, "migration robust z-score": -0.55, "nuclei per well, duplicate mean": 5692, "Call": "inactive"}
{"Target gene": "EDRF1 (erythroid differentiation regulatory factor 1)", "pool no.": 1, "migration robust z-score": 0.7, "nuclei per well, duplicate mean": 5125, "Call": "inactive"}
{"Target gene": "CABCOCO1 (ciliary associated calcium binding coiled-coil 1)", "pool no.": 1, "migration robust z-score": -0.15, "nuclei per well, duplicate mean": 5648, "Call": "inactive"}
{"Target gene": "DNHD1 (dynein heavy chain domain 1)", "pool no.": 1, "migration robust z-score": 0.34, "nuclei per well, duplicate mean": 5977, "Call": "inactive"}
{"Target gene": "DNHD1 (dynein heavy chain domain 1)", "pool no.": 2, "migration robust z-score": -1.72, "nuclei per well, duplicate mean": 4535, "Call": "inactive"}
{"Target gene": "GZMH (granzyme H)", "pool no.": 1, "migration robust z-score": 1.43, "nuclei per well, duplicate mean": 6283, "Call": "inactive"}
{"Target gene": "RLIM (ring finger protein, LIM domain interacting)", "pool no.": 1, "migration robust z-score": 0.52, "nuclei per well, duplicate mean": 3858, "Call": "inactive"}
{"Target gene": "LRRC17 (leucine rich repeat containing 17)", "pool no.": 1, "migration robust z-score": -0.9, "nuclei per well, duplicate mean": 5834, "Call": "inactive"}

Part of the list above, set out differently:
| Target gene | pool no. | migration robust z-score | nuclei per well, duplicate mean | Call |
| --- | --- | --- | --- | --- |
| ABHD12B (abhydrolase domain containing 12B) | 1 | 0.26 | 5046 | inactive |
| GNG4 (G protein subunit gamma 4) | 1 | 0.13 | 6390 | inactive |

The list goes on.
{"Target gene": "BCL2L15 (BCL2 like 15)", "pool no.": 1, "migration robust z-score": 0.32, "nuclei per well, duplicate mean": 5683, "Call": "inactive"}
{"Target gene": "POLRMT (RNA polymerase mitochondrial)", "pool no.": 1, "migration robust z-score": 1.97, "nuclei per well, duplicate mean": 4854, "Call": "inactive"}
{"Target gene": "FCGR2B (Fc gamma receptor IIb)", "pool no.": 1, "migration robust z-score": 1.66, "nuclei per well, duplicate mean": 4825, "Call": "inactive"}
{"Target gene": "NT5C3A (5'-nucleotidase, cytosolic IIIA)", "pool no.": 1, "migration robust z-score": 0.42, "nuclei per well, duplicate mean": 5758, "Call": "inactive"}
{"Target gene": "TMEM43 (transmembrane protein 43)", "pool no.": 1, "migration robust z-score": 2.22, "nuclei per well, duplicate mean": 5996, "Call": "active"}
{"Target gene": "ZNF697 (zinc finger protein 697)", "pool no.": 1, "migration robust z-score": 1.04, "nuclei per well, duplicate mean": 4838, "Call": "inactive"}
{"Target gene": "RFPL4AL1 (ret finger protein like 4A like 1)", "pool no.": 1, "migration robust z-score": -5.19, "nuclei per well, duplicate mean": 2774, "Call": "inactive"}
